# About 22,000 (6.9%) of roughly 320,000 compounds were called active. The shares of active, inactive and inconclusive entries below differ from those in the screen. Calls come from the whole dose curve; as a rule, active = well fitted inhibition curve with a large enough effect; inconclusive = small, poorly fitted or top-dose-only effect, or another doubt; inactive = no such curve, though single readings can be large or run the other way. Where the call is inconclusive, the potency comes from a doubtful curve fit.
# Assay: Primary qHTS for delayed death inhibitors of the malarial parasite plastid, 96 hour incubation
# Settings: P. falciparum luciferase reporter growth; series mostly up to 28.7 µM; activity change, negative = inhibition: at the top concentration
# Procedure, shortened: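 Plates of compound plus infected erythrocytes (2% hematocrit, 0.05% parasitemia final) incubate 96 hours, 37 C, 5% CO2. Detection reagent added; reduced luminescence from the parasites' luciferase reporter flags inhibition.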
# % is set by controls: 0 for no effect and ±100 for the full control effect; potency is the fitted concentration of half-maximal effect.
SMILES,Potency,"activity change, negative = inhibition"
Cc1ccccc1C(=O)N1CCN(c2ccc(NC(=O)Cc3ccccc3)cc2)CC1,"inconclusive: 2.08 µM [inhibitor, partial curve, poor fit]",
COc1cccc2c1Oc1ncccc1N(C(=O)CCC(=O)NCc1ccccc1F)C2,active: 11.7 µM,
c1ccc(Nc2c(-c3ccco3)nc3ccccn23)cc1,"inconclusive: 10.4 µM [inhibitor, single point]",
Cc1cc(Br)ccc1NC(=O)CN(C)C(=O)c1ccc2ccccc2n1,,inactive: 45.9%
CC(CC(=O)N1CCc2ccccc21)n1cccn1 (stereo unspecified),"inconclusive: 13.1 µM [inhibitor, single point]",
O=C(CCC(=O)Nc1ccc(Br)cc1)N/N=C/c1ccc(O)cc1,"inconclusive: 0.37 µM [inhibitor, full curve]",
CCN(c1cc(C)cc(C)c1)S(=O)(=O)c1nnc(NC(=O)c2ccco2)s1,active: 11.7 µM,
COc1cc(/C=C2\SC(=S)N(CC(=O)Nc3ccccn3)C2=O)cc(OC)c1OC,"inconclusive: 18.5 µM [inhibitor, single point]",
CCC1(CC)Cc2ccccc2C2=C(C(=O)N3CCCCC3)C(=O)C(=O)N21,,inactive: -10.1%
COc1ccc(-c2[nH]c(-c3cccc(OC)c3)nc2SCC(=O)NCc2ccco2)cc1,"inconclusive: 9.28 µM [inhibitor, single point]",
O=C(O)c1ccc(C(=O)Nc2cccc3ccccc23)c(C(=O)O)c1,"inconclusive: 18.5 µM [inhibitor, single point]",
Cc1ccc(S(=O)(=O)N2CCCCC2CCNC(=O)C(=O)NCc2ccccc2C)cc1 (stereo unspecified),"inconclusive: 18.5 µM [inhibitor, partial curve, poor fit]",
COC(=O)c1ccc(NC(=O)c2cccc(NC(=O)c3ccco3)c2)cc1,"inconclusive: 9.28 µM [inhibitor, single point]",
O=C(O)C1CCCN1C(=O)OCC1c2ccccc2-c2ccccc21 (stereo unspecified),"inconclusive: 3.7 µM [inhibitor, full curve, poor fit]",
Cc1ccc(-c2nc(CN(C)C3CCOC3)c(C)o2)s1 (stereo unspecified),,inactive: 19%
CN(C(=O)c1ccc(NC(=O)Cc2cccc(NC(=O)C3CCN(C(=O)CCc4ccccc4)CC3)c2)cc1)C1CCCC1,active: 1.85 µM,
C/C(=C\c1ccco1)CN1CCN(Cc2ccc(C)o2)C(CCO)C1 (stereo unspecified),,inactive: 25.1%
Nc1cccc(C(=O)NCCNC(=O)c2cccc(N)c2)c1,,inactive: -20.4%
COc1ccc(CN2CCNC(=O)C2CC(=O)NC2CCCCCC2)c(F)c1 (stereo unspecified),"inconclusive: 6.57 µM [inhibitor, partial curve]",
CCC(=O)Nc1c2c(nn1-c1ccc(OC)cc1)CS(=O)C2 (stereo unspecified),"inconclusive: 20.8 µM [inhibitor, partial curve, poor fit]",
O=C(NCC1CCCO1)c1ccc(COc2ccccc2)o1 (stereo unspecified),,inactive: 3.64%
COC(=O)CC1COc2ccccc2N1C(=O)/C=C/c1ccccc1 (stereo unspecified),,inactive: -19.5%
COc1cc(S(=O)(=O)NCc2cccnc2)c(OC)cc1Br,"inconclusive: 4.15 µM [inhibitor, single point]",

# Reprinted at random: 3 entries already listed.
SMILES,Potency,"activity change, negative = inhibition"
CCC1(CC)Cc2ccccc2C2=C(C(=O)N3CCCCC3)C(=O)C(=O)N21,,inactive: -10.1%
Cc1ccc(S(=O)(=O)N2CCCCC2CCNC(=O)C(=O)NCc2ccccc2C)cc1 (stereo unspecified),"inconclusive: 18.5 µM [inhibitor, partial curve, poor fit]",
Cc1cc(Br)ccc1NC(=O)CN(C)C(=O)c1ccc2ccccc2n1,,inactive: 45.9%

# Continued.

SMILES,Potency,"activity change, negative = inhibition"
CCCCOCCCNS(=O)(=O)c1ccccc1,,inactive: 24%
C#CCN(Cc1ccco1)C(=O)c1cc(COc2ccc(F)cc2Cl)on1,,inactive: 11.5%
CN(CCOc1ccccc1Cl)Cc1ccccc1,,inactive: 4.49%
Cc1csc2c(N3CCN(C(=S)Nc4ccc(C(F)(F)F)cc4)CC3)ncnc12,,inactive: 31.6%
O=C(CCCc1c[nH]c2ccccc12)Nc1ncccc1O,"inconclusive: 13.1 µM [inhibitor, single point]",
CC(C)(C)C1CCC(C(=O)OCC(=O)c2ccc[nH]2)CC1 (stereo unspecified),,inactive: 5.59%
CCN(CC)c1ccc(S(=O)(=O)N2CCOCC2)cc1NC(=O)CSc1ccccc1,"inconclusive: 9.28 µM [inhibitor, single point]",
CCc1cc(C(c2ccncc2)N2CCN(C)CC2)c(NC(=O)c2ccccc2)s1 (stereo unspecified),"inconclusive: 10.4 µM [inhibitor, single point]",
c1ccc(C2Nc3ccccc3C3OCCCC23)cc1 (stereo unspecified),"inconclusive: 18.5 µM [inhibitor, single point]",
CCOC(=O)c1c(C)oc2c1c(C(c1ccccc1)N1CCOCC1)c(O)c1ccccc12 (stereo unspecified),"inconclusive: 8.28 µM [inhibitor, partial curve, poor fit]",
Cc1ccc2[nH]cc(C(=O)CN3CCN(c4ccccn4)CC3)c2c1,"inconclusive: 14.7 µM [inhibitor, partial curve, poor fit]",
O=C(O)c1ccccc1NC(=O)C(Cc1ccccc1)N1C(=O)c2ccccc2C1=O (stereo unspecified),"inconclusive: 3.29 µM [inhibitor, partial curve]",
COC(=O)CSc1nc2ccccc2c(=O)n1C,"inconclusive: 0.0033 µM [inhibitor, full curve, poor fit]",
CC(=O)NC(Cc1ccccc1C)C(=O)NC1CCN(c2nnnn2-c2ccccc2)CC1 (stereo unspecified),"inconclusive: 0.0029 µM [inhibitor, full curve, poor fit]",
COc1ccc2c(=O)c(C(=O)NCc3ccccc3)c[nH]c2c1,"inconclusive: 13.1 µM [inhibitor, single point]",
Cn1ccnc1SCC(=O)Nc1ccc(Oc2ccccc2)cc1,,inactive: 66.4%
Nc1ncnc2c1ncn2[C@@H]1O[C@H](COS(=O)(=O)O)[C@@H](O)[C@H]1O,"inconclusive: 1.65 µM [inhibitor, full curve, poor fit]",
COc1ccc(S(=O)(=O)N2CCC(C(=O)NCc3ccncc3)CC2)cc1C,,inactive: 237%
CCOC(=O)/C(C#N)=C1/C=C(C)NC(c2ccccc2O)=N1,,inactive: 15.2%
COc1cccc(CN2CCN(C(=O)Nc3ccc([N+](=O)[O-])cc3)CC2)c1,"inconclusive: 13.1 µM [inhibitor, single point]",
Cc1cccc(-c2nnc(SCC#N)n2Cc2ccccc2)c1,"inconclusive: 9.28 µM [inhibitor, single point]",
CC(OC(=O)CCCN=C1NS(=O)(=O)c2ccccc21)C(=O)NC1CCCCC1C (stereo unspecified),,inactive: -24.1%
COc1ccc(CN2CCN(CC3CC3)CC2CCO)cc1C (stereo unspecified),"inconclusive: 18.5 µM [inhibitor, single point]",
